Some of these results come from one statement about several compounds together.
Tested on: MIN6 cell
Test: Insulin secretion test using MIN6 cell
Format: cell-based, murine
Conditions: at 10 μmol/l
Procedure: Culturing MIN6 cell and testing insulin secretion using MIN6 cell were carried out according to the method described in Diabetorogia, 36, 1139-1145 (1993).
In other words, the influence of a compound on the insulin secretion activity in the presence of 14.5 mmol/l glucose was assessed by assaying the amount of insulin in the cell culture supernatant collected as follows.
The MIN6 cell cultured in a 24-well plate was washed twice with 1 ml of buffer A [119 mmol/l NaCl, 4.74 mmol/l KCl, 2.54 mmol/l CaCl2, 1.19 mmol/l MgSO4, 1.19 mmol/l KH2PO4, 10 mmol/l 2-[4-(2-hydroxylethyl)-1-piperadinyl]ethanesulfonic acid, 0.1% BSA, pH 7.3] containing 2 mmol/l glucose. Subsequently, the resulting cell was incubated in 1 ml of the buffer A containing 2 mmol/l glucose at 37° C. for 45 minutes. The culture supernatant was exchanged with the buffer A (1 ml) containing test compounds of various concentrations and 8.4 mmol/l glucose and incubated at 37° C. for 45 minutes to collect the culture supernatant.
Antibody-reactive insulin secreted in the culture supernatant was assayed by radioimmunoassay [Methods in Investigative and Diagnostic Endocrinology, Vol. 2A, 2B, North-Holland Publishing Co., Amsterdam (1973)] after the culture supernatant was diluted with phosphate buffer containing 1% BSA, 0.1% Tween 20, 0.12% EDTA 2Na, and 0.1% sodium azide. A standard curve was prepared by using human insulin as the standard substance, and individual insulin values were calculated on the basis of the curve.

## CC(C)(C)Nc1nc(NC(C)(C)C)nc(N2CCOCC2)n1 [compound 194]
  insulin secretion-promoting activity (observed): have insulin secretion-promoting activity

## C1=CC2N=CN(c3nc(-n4cnc5ccccc54)nc(-n4cnc5ccccc54)n3)C2C=C1 (stereo not drawn) [compound 197]
  insulin secretion-promoting activity (observed): have insulin secretion-promoting activity

## CN(C)c1nc(NC(C)(C)C)nc(NC(C)(C)C)n1 [compound 198]
  insulin secretion-promoting activity (observed): have insulin secretion-promoting activity

Reference: patent publication US20070191402A1, “Method of searching substrate having antidiabetic activity” (KYOWA HAKKO KOGYO CO., LTD., priority 2002, published 2007)
